# The list shows a part of the results.
# Protein sequences, listed by entry. Tags and fused reporters are not part of them. Lines headed by an entry give the natural chain unless they say otherwise; changes in a name come on top.
# UniProt Q9UQR1: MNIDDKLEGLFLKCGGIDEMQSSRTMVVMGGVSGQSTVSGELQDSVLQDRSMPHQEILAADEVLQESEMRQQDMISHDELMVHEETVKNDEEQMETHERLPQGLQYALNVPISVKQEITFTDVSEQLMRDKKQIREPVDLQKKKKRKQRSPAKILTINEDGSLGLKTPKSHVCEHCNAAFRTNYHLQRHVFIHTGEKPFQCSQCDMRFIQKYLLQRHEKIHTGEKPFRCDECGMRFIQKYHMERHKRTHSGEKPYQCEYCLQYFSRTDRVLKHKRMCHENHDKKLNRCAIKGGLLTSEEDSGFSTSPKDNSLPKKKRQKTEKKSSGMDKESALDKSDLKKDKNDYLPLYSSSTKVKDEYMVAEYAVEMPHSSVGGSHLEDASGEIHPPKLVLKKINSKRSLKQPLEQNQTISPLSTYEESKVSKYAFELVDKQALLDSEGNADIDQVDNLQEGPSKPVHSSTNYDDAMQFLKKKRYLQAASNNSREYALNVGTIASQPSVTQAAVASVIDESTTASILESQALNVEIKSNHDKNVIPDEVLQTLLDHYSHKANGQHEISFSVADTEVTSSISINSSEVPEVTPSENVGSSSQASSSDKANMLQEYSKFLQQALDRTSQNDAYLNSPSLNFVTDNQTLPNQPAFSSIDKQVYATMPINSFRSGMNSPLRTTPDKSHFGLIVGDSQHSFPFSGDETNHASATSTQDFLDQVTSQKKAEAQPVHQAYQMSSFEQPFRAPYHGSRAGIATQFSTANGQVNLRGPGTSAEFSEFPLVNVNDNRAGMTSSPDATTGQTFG
# UniProt Q7Z7L7: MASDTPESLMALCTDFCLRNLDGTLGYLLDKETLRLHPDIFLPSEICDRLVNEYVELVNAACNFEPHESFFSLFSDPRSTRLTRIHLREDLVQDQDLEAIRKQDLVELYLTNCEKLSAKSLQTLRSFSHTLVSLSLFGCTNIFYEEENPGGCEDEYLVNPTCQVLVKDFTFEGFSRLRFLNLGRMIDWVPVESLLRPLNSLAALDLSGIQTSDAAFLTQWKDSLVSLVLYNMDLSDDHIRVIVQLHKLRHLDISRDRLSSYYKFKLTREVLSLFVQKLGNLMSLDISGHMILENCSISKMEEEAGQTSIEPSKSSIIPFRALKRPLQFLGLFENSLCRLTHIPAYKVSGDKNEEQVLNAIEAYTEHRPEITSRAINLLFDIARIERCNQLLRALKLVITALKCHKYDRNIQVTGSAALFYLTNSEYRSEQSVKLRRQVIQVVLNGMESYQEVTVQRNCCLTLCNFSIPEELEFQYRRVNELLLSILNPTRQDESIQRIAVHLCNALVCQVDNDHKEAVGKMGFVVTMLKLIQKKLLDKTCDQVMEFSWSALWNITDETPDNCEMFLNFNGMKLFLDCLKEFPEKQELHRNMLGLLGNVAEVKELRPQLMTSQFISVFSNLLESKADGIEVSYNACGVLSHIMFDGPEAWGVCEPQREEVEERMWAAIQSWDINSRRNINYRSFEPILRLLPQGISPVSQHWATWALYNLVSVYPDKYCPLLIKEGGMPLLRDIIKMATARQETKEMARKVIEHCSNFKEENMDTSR
# UniProt Q5T200: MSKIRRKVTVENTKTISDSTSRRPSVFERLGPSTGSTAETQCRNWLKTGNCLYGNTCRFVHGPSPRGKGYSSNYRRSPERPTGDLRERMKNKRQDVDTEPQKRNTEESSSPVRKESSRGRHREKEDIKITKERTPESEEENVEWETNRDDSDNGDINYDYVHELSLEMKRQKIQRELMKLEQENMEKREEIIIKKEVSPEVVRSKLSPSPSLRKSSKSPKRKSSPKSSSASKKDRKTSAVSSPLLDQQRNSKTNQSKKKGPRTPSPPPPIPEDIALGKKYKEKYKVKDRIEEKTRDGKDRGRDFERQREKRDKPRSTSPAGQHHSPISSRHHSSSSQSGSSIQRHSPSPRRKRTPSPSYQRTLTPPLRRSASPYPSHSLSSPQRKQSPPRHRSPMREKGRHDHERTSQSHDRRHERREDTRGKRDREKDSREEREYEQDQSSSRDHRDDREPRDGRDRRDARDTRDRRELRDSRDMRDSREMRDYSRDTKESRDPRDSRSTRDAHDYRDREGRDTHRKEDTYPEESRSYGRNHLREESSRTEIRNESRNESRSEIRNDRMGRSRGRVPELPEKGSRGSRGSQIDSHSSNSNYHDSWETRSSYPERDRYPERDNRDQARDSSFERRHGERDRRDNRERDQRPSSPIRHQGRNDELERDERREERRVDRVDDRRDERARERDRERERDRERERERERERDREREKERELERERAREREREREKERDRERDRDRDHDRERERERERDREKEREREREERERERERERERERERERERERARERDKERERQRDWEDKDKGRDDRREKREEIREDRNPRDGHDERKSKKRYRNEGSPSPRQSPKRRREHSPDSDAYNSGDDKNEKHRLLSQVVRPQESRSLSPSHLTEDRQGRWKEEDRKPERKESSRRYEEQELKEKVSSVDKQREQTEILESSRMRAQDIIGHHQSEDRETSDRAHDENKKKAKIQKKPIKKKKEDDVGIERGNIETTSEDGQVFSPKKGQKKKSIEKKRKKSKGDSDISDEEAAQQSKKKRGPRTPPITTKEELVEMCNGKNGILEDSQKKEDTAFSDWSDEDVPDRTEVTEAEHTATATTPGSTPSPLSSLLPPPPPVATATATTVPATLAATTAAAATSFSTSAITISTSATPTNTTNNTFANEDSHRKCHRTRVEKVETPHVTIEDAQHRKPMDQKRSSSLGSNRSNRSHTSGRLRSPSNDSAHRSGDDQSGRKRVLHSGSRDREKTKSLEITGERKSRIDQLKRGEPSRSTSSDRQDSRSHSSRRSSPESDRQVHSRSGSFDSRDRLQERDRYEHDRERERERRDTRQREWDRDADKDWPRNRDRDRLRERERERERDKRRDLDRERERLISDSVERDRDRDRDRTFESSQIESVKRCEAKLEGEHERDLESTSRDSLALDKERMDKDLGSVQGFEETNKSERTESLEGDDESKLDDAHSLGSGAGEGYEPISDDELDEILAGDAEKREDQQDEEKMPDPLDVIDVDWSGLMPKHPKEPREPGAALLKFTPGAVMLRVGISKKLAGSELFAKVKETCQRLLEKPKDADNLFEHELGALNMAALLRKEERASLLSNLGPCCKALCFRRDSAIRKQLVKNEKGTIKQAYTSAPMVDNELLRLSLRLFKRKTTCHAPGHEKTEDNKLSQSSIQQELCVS
# UniProt Q9BSR8: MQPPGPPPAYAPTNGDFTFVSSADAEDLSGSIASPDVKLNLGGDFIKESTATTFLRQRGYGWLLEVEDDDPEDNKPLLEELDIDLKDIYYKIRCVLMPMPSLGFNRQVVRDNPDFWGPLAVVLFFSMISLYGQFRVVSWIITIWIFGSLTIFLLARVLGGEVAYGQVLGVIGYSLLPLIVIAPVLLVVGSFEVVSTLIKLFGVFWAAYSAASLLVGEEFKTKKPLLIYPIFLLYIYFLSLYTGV
# UniProt Q8IWT0: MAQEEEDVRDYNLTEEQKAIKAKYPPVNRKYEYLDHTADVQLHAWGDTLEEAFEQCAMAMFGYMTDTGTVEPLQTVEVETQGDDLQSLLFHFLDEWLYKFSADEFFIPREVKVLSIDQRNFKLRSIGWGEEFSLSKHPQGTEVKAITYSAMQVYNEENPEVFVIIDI
# UniProt Q8IY57: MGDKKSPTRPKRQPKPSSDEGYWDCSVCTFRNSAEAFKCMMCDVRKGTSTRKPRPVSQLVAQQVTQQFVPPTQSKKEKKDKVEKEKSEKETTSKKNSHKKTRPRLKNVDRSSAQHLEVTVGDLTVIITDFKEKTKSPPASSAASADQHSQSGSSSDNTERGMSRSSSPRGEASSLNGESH
# UniProt Q04917: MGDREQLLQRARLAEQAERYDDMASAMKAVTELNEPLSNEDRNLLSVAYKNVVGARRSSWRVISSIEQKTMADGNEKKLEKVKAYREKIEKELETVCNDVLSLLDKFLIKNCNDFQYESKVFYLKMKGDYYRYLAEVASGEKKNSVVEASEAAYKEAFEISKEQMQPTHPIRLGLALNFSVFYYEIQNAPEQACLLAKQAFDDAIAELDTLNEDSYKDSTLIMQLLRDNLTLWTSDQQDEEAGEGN
# UniProt Q8N567: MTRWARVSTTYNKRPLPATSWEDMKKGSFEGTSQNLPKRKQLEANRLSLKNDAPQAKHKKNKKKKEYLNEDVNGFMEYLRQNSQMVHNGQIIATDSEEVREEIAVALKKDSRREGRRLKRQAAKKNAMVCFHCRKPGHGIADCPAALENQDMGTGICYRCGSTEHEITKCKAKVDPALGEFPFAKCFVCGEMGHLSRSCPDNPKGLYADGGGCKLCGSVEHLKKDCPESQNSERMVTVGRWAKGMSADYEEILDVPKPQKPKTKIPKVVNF
# UniProt Q96KR1: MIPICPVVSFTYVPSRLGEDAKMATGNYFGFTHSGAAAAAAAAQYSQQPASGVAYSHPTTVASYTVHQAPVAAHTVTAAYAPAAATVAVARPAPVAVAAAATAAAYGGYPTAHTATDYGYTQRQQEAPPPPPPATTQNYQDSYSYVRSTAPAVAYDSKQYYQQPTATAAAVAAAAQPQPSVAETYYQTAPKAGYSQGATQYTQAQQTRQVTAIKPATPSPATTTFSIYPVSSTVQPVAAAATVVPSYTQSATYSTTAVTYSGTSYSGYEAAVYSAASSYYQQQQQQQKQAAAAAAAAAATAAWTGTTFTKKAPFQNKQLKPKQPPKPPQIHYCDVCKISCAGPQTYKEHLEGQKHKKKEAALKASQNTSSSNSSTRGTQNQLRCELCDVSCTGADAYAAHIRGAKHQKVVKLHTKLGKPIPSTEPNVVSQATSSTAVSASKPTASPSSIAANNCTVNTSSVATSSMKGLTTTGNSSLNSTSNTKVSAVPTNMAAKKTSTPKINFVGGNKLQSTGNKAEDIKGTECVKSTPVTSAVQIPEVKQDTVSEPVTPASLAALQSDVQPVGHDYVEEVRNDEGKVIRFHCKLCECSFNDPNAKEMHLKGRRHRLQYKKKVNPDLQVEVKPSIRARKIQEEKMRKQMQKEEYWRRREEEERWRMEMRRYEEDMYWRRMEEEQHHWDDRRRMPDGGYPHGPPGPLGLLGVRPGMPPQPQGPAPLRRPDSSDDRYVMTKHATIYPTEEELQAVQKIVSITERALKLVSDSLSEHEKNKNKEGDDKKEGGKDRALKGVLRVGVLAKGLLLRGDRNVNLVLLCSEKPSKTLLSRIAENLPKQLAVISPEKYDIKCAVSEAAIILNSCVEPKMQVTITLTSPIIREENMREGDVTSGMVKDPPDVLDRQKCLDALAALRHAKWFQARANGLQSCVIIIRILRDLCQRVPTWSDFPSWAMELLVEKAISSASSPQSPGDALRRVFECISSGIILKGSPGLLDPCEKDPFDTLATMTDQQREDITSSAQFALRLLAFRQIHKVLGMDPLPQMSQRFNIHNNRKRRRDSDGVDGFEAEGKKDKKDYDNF
# UniProt P07947, whole entry, looked up: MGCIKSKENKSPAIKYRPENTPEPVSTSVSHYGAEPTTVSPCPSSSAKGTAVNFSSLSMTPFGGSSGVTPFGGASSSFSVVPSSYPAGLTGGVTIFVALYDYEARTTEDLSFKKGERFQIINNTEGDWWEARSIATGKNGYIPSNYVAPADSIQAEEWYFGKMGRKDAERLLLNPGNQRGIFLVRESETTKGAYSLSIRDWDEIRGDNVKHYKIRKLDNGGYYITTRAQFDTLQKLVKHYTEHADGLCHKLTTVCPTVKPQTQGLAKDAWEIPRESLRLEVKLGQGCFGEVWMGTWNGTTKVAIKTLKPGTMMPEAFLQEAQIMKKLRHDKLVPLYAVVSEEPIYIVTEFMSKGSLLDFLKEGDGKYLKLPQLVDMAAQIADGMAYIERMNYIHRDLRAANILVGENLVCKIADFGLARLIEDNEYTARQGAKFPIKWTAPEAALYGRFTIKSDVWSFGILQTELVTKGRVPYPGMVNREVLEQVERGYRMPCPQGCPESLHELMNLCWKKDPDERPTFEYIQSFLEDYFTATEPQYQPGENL
# UniProt P54577: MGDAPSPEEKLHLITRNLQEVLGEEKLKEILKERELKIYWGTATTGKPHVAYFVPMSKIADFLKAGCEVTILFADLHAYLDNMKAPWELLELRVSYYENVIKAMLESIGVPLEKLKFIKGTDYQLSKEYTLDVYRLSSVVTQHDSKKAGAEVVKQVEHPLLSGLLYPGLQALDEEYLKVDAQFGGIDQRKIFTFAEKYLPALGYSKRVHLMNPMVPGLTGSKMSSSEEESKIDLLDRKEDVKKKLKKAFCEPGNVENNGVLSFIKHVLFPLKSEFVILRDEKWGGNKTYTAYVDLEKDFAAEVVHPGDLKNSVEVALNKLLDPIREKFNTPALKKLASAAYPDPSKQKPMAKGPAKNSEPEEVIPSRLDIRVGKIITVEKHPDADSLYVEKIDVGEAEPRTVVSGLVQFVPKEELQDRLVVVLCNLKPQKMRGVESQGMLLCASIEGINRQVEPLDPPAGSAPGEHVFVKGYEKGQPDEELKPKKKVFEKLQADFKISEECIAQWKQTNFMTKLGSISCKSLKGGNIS
# Columns and labels:
# Experiment in all cases: log2 fold change, soluble protein after heating vs DMSO (PISA); higher = thermal stabilisation; K562 cells, 10 uM, 30 min; active = over 0.2 and 3.5 SD of the protein, either way, in both replicates (recomputed)
# bafetinib = compound: Cc1ccc(NC(=O)c2ccc(CN3CC[C@H](N(C)C)C3)c(C(F)(F)F)c2)cc1Nc1nccc(-c2cncnc2)n1 [bafetinib]
# In short: (§1)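 Aliquots of K562 cells (2×10^6 cells/mL) treated with 10 μM compound for 30 min were heated for 3 min over 48°C-58°C. After pooling and extraction in PBS with 0.5% NP-40 at 4°C, soluble protein from a 21,000xg, 90 min spin was quantified by TMTpro 16plex LC-MS/MS with channel sums equalised. Thermal stability is expressed against control samples, from duplicates, as a log2 fold change.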
# [1] = compound: Cc1cccc(CC(=O)N2CCc3c2ccc(-c2cn(C)c4ncnc(N)c24)c3F)n1
# In short: as §1
# nilotinib = compound: Cc1cn(-c2cc(NC(=O)c3ccc(C)c(Nc4nccc(-c5cccnc5)n4)c3)cc(C(F)(F)F)c2)cn1 [nilotinib]
# In short: as §1
# [2] = compound: Cc1nc(Nc2n[nH]c3c2CN(C(=O)N[C@H](CN(C)C)c2ccccc2)C3(C)C)c2sccc2n1
# In short: as §1
# dasatinib = compound: Cc1nc(Nc2ncc(C(=O)Nc3c(C)cccc3Cl)s2)cc(N2CCN(CCO)CC2)n1 [dasatinib]
# In short: as §1
# [3] = compound: Cc1ncc(-c2ccnc(Nc3ccc(S(C)(=O)=O)cc3)n2)n1C(C)C
# In short: as §1
# [4] = compound: Cn1cc(-c2ccc3c(c2)CCN3C(=O)Cc2cccc(C(F)(F)F)c2)c2c(N)ncnc21
# In short: as §1
# [5] = compound: Cn1cc(-c2ccc3nnc(C(F)(F)c4ccc5ncccc5c4)n3n2)cn1
# In short: as §1
# tipifarnib = compound: Cn1cncc1[C@@](N)(c1ccc(Cl)cc1)c1ccc2c(c1)c(-c1cccc(Cl)c1)cc(=O)n2C [tipifarnib]
# In short: as §1
# mubritinib = compound: FC(F)(F)c1ccc(/C=C/c2nc(COc3ccc(CCCCn4ccnn4)cc3)co2)cc1 [mubritinib]
# In short: as §1
Target,log2 fold change (bafetinib),log2 fold change [1],log2 fold change (nilotinib),log2 fold change [2],log2 fold change (dasatinib),log2 fold change [3],log2 fold change [4],log2 fold change [5],log2 fold change (tipifarnib),log2 fold change (mubritinib)
ZNF148 (UniProt Q9UQR1),inactive: -0.082,inactive: 0.02,inactive: 0.178,inactive: -0.173,inactive: 0.106,inactive: 0.036,inactive: -0.094,inactive: 0.441,inactive: 0.026,inactive: 0.13
XPOT (UniProt O43592),inactive: -0.014,inactive: 0.013,inactive: -0.083,inactive: -0.012,inactive: -0.13,inactive: 0.083,inactive: -0.075,inactive: 0.066,inactive: -0.173,inactive: 0.077
ZADH2 (UniProt Q8N4Q0),inactive: -0.08,inactive: -0.041,inactive: 0.04,inactive: -0.127,inactive: 0.035,inactive: 0.066,inactive: 0.04,inactive: 0.107,inactive: -0.053,active: -0.294
XRCC4 (UniProt Q13426),inactive: -0.039,inactive: -0.014,inactive: -0.014,inactive: 0.024,inactive: 0.009,inactive: -0.026,inactive: 0.011,inactive: 0.013,inactive: 0.016,inactive: 0.039
ZER1 (UniProt Q7Z7L7),inactive: -0.055,inactive: 0.369,inactive: 0.098,inactive: -0.141,inactive: -0.033,inactive: 0.058,inactive: -0.021,inactive: -0.024,inactive: 0.111,inactive: 0.044
YOD1 (UniProt Q5VVQ6),inactive: -0.07,inactive: 0.041,inactive: -0.061,inactive: -0.089,inactive: -0.115,inactive: -0.018,inactive: 0.023,inactive: 0.057,inactive: -0.048,inactive: 0.108
ZMPSTE24 (UniProt O75844),inactive: 0.075,inactive: -0.019,inactive: 0.17,inactive: 0.008,inactive: 0.019,inactive: -0.061,inactive: -0.018,inactive: -0.014,inactive: 0.001,inactive: 0.026
ZC3H13 (UniProt Q5T200),inactive: -0.396,inactive: -0.338,inactive: -0.216,inactive: 0.005,inactive: 0.032,inactive: 0.015,inactive: 0.146,inactive: -0.042,inactive: 0.066,inactive: -0.293
ZFAND2B (UniProt Q8WV99),inactive: -0.011,inactive: -0.082,inactive: -0.001,inactive: -0.049,inactive: -0.011,inactive: 0.022,inactive: 0,inactive: 0.058,inactive: -0.042,inactive: -0.01
YWHAZ (UniProt P63104),inactive: -0.022,inactive: 0.029,inactive: 0.04,inactive: -0.015,inactive: -0.044,inactive: -0.003,inactive: 0.052,inactive: -0.045,inactive: -0.123,inactive: 0.015
YIPF4 (UniProt Q9BSR8),inactive: -0.045,inactive: -0.042,inactive: 0.046,inactive: 0.004,inactive: 0.021,inactive: -0.005,inactive: 0.03,inactive: 0.108,active: 0.31,inactive: 0.024
ZBTB8OS (UniProt Q8IWT0),inactive: 0.037,inactive: 0.018,inactive: 0.112,inactive: 0.185,inactive: 0.07,inactive: 0.028,inactive: -0.006,inactive: 0.055,inactive: -0.055,inactive: 0.126
YAF2 isoform 5 (UniProt Q8IY57),inactive: 0.027,inactive: -0.252,inactive: 0.06,inactive: -0.044,inactive: 0.031,inactive: 0.033,inactive: -0.023,inactive: -0.092,inactive: -0.002,inactive: -0.099
YWHAH (UniProt Q04917),inactive: -0.043,inactive: 0.028,inactive: 0.04,inactive: -0.075,inactive: -0.004,inactive: -0.023,inactive: -0.013,inactive: -0.039,inactive: 0.03,inactive: 0.057
YEATS4 (UniProt O95619),inactive: -0.041,inactive: 0.031,inactive: 0.054,inactive: -0.023,inactive: 0.066,inactive: -0.052,inactive: 0.067,inactive: -0.039,inactive: 0.067,inactive: 0.012
ZNF143 (UniProt P52747),inactive: -0.089,inactive: 0.027,inactive: -0.105,inactive: -0.047,inactive: -0.007,inactive: 0.074,inactive: -0.129,inactive: 0.041,inactive: 0.037,inactive: 0.094
ZFYVE1 (UniProt Q9HBF4),inactive: 0.113,inactive: 0.268,inactive: -0.09,inactive: -0.016,inactive: 0.063,inactive: -0.084,inactive: 0.039,inactive: -0.129,inactive: 0.053,inactive: 0.096
ZNF217 (UniProt O75362),inactive: -0.057,inactive: 0.008,inactive: -0.082,inactive: -0.055,inactive: -0.136,inactive: -0.046,inactive: 0.142,inactive: -0.01,inactive: -0.152,inactive: 0.08
ZCCHC9 (UniProt Q8N567),inactive: 0.144,inactive: -0.048,inactive: -0.046,inactive: 0.159,,inactive: 0.005,inactive: -0.074,inactive: -0.081,inactive: 0.113,inactive: -0.087
ZFR (UniProt Q96KR1),inactive: 0.065,inactive: 0.047,inactive: 0.062,inactive: 0.036,inactive: 0.226,inactive: 0.024,inactive: -0.205,inactive: -0.076,,inactive: -0.152
ZBTB7A (UniProt O95365),inactive: 0.013,,inactive: 0.085,inactive: 0.006,inactive: 0.183,inactive: -0.082,inactive: -0.23,inactive: -0.064,inactive: 0.048,
ZC3HAV1 (UniProt Q7Z2W4),inactive: 0.069,inactive: 0.024,inactive: 0.074,inactive: -0.257,inactive: 0.023,inactive: 0.012,inactive: -0.09,inactive: -0.293,inactive: 0.122,inactive: -0.13
ZC3H11A (UniProt O75152),inactive: -0.128,inactive: 0.007,inactive: 0.089,inactive: 0.013,inactive: -0.242,inactive: -0.194,inactive: -0.166,,inactive: 0.141,inactive: -0.048
ZFYVE9 (UniProt O95405),inactive: -0.095,,inactive: 0.003,inactive: -0.037,inactive: -0.192,inactive: 0.144,inactive: 0.136,inactive: 0.054,inactive: 0.089,inactive: 0.215
YES1 (UniProt P07947),inactive: 0.049,inactive: 0.007,inactive: -0.033,active: -0.746,active: -0.737,inactive: -0.051,inactive: -0.284,inactive: 0.008,inactive: -0.001,inactive: -0.067
ZFPM1 (UniProt Q8IX07),inactive: 0.252,,inactive: 0.022,inactive: 0.082,inactive: -0.131,inactive: -0.175,inactive: 0.235,inactive: 0.099,inactive: 0.193,
YARS (UniProt P54577),inactive: 0,inactive: 0.04,inactive: -0.074,inactive: -0.089,inactive: -0.086,inactive: 0.034,inactive: 0.003,inactive: 0.001,inactive: -0.096,inactive: 0.011
YPEL5 (UniProt P62699),inactive: 0.064,inactive: 0.198,inactive: -0.237,inactive: -0.118,inactive: -0.004,inactive: 0.036,inactive: -0.077,inactive: -0.071,inactive: 0.125,inactive: -0.202
ZFYVE16 (UniProt Q7Z3T8),inactive: -0.048,inactive: 0.001,inactive: 0.002,inactive: 0,inactive: -0.018,inactive: -0.045,inactive: 0.026,inactive: 0.004,inactive: -0.013,inactive: 0.008
XIRP2 isoform 8 (UniProt A4UGR9),inactive: -0.111,inactive: -0.063,inactive: -0.025,inactive: 0,inactive: 0.013,inactive: -0.03,inactive: -0.065,,inactive: 0.098,inactive: 0.02

# Part of the list above, set out differently.
Target | log2 fold change (bafetinib) | log2 fold change [1] | log2 fold change (nilotinib) | log2 fold change [2] | log2 fold change (dasatinib) | log2 fold change [3] | log2 fold change [4] | log2 fold change [5] | log2 fold change (tipifarnib) | log2 fold change (mubritinib)
ZCCHC9 (UniProt Q8N567) | inactive: 0.144 | inactive: -0.048 | inactive: -0.046 | inactive: 0.159 |  | inactive: 0.005 | inactive: -0.074 | inactive: -0.081 | inactive: 0.113 | inactive: -0.087
ZFR (UniProt Q96KR1) | inactive: 0.065 | inactive: 0.047 | inactive: 0.062 | inactive: 0.036 | inactive: 0.226 | inactive: 0.024 | inactive: -0.205 | inactive: -0.076 |  | inactive: -0.152
ZBTB7A (UniProt O95365) | inactive: 0.013 |  | inactive: 0.085 | inactive: 0.006 | inactive: 0.183 | inactive: -0.082 | inactive: -0.23 | inactive: -0.064 | inactive: 0.048 | 
ZC3HAV1 (UniProt Q7Z2W4) | inactive: 0.069 | inactive: 0.024 | inactive: 0.074 | inactive: -0.257 | inactive: 0.023 | inactive: 0.012 | inactive: -0.09 | inactive: -0.293 | inactive: 0.122 | inactive: -0.13
ZC3H11A (UniProt O75152) | inactive: -0.128 | inactive: 0.007 | inactive: 0.089 | inactive: 0.013 | inactive: -0.242 | inactive: -0.194 | inactive: -0.166 |  | inactive: 0.141 | inactive: -0.048
ZFYVE9 (UniProt O95405) | inactive: -0.095 |  | inactive: 0.003 | inactive: -0.037 | inactive: -0.192 | inactive: 0.144 | inactive: 0.136 | inactive: 0.054 | inactive: 0.089 | inactive: 0.215
YES1 (UniProt P07947) | inactive: 0.049 | inactive: 0.007 | inactive: -0.033 | active: -0.746 | active: -0.737 | inactive: -0.051 | inactive: -0.284 | inactive: 0.008 | inactive: -0.001 | inactive: -0.067
